# From publication PMC5634784, “Clearance of beta-amyloid is facilitated by apolipoprotein E and circulating high-density lipoproteins in bioengineered human vessels” (eLife, 2017)
# System: bioengineered bipartite vessels
# Experiment: Aβ accumulation in bioengineered bipartite vessels (ELISA, 6E10 immunostaining)
# Format: cell-based, human
substance,measurement,setting,value
"Aβ42: Recombinant Aβ42 peptide (California Peptide Research), soluble monomers",Aβ deposition in tissues engineered from brain- versus cord-derived cells,"1 μM monomers anteluminal, 24 hr under flow, ELISA, at least four independent tissues",the differences were not significant
same,Aβ tissue levels after initial deposition,"bipartite vessels, 1 μM monomeric Aβ anteluminal, ELISA time course",remained stable for up to 72 hr
same,retention of Aβ within the bioengineered vascular wall,"bipartite vessels, monomers 0, 0.1, 1.0 and 10 μM injected anteluminally, 48 hr under flow, ELISA and 6E10 immunostaining, at least four independent tissues",dose-dependent retention
